Laboratory results from the supplement of paper PMC10735217.
Counter-ions that a name gives are not always drawn. The list shows a part of the results. Single values are uncertain here, since repeats match poorly.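 Human kidney-derived cells stably carry a construct in which eight TEAD-binding elements drive luciferase, measured by luminescence in a drug-repurposing library screen. A hit is any compound whose signal exceeds the plate mean by more than five robust Z scores.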

System: HEK293A TEAD-LUC reporter
Assay: TEAD-luciferase reporter activity (YAP activation), robust Z score vs plate; higher = stronger YAP/TEAD activation
Details: 24 h

| SMILES | TEAD-luciferase reporter activity (compound concentration: 200 nM) | TEAD-luciferase reporter activity (compound concentration: 2 uM) | TEAD-luciferase reporter activity (compound concentration: 10 uM) |
| --- | --- | --- | --- |
| O=C(CO)N1CCC(c2n[nH]c(-c3ccc(Cl)cc3)c2-c2ccncn2)CC1 | inactive: -2.16 | inactive: -0.555 | inactive: 0.949 |
| NC(=O)c1[nH]nc([C@@H]2O[C@H](CO)[C@@H](O)[C@H]2O)c1O | inactive: -0.513 | inactive: -0.371 | inactive: -0.48 |
| C[N+](C)(C)C[C@@H](O)CC(=O)[O-] [levocarnitine, Ajinomoto] | inactive: -0.599 | inactive: 0.186 | inactive: -0.789 |
| CN(C)CCNC(=O)c1cccc2cccnc12 | inactive: 4 | inactive: 2.82 | inactive: -0.116 |
| CCc1cc(OCc2ccc3ccccc3n2)cc2c3c([nH]c12)C(CC)(CC(=O)O)OCC3 (configuration not stated) | inactive: -0.0301 | inactive: -0.697 | inactive: -0.374 |
| CC(SC(=O)c1ccccc1)C(=O)NCC(=O)OCc1cccc(COC(=O)CNC(=O)C(C)SC(=O)c2ccccc2)n1 (configuration not stated) [dibenzothioline] | inactive: 2.87 | inactive: -1.01 | inactive: -1.07 |
| O=C(C1CCCN1C(=O)C1CC1)N1CCC(c2ccccc2)CC1 (configuration not stated) | inactive: -2.23 | – | inactive: -1.94 |
| NC[C@@H]1O[C@H](O[C@H]2[C@@H](O)[C@H](O[C@@H]3[C@@H](O)[C@H](N)C[C@H](N)[C@H]3O[C@H]3O[C@H](CO)[C@@H](O)[C@H](O)[C@H]3N)O[C@@H]2CO)[C@H](N)[C@@H](O)[C@@H]1O [Paromomycin Sulfate] | inactive: -0.616 | – | inactive: -0.916 |
| NC[C@@H]1O[C@H](O[C@H]2[C@@H](O)[C@H](O[C@@H]3[C@@H](O)[C@H](N)C[C@H](N)[C@H]3O[C@H]3O[C@H](CO)[C@@H](O)[C@H](O)[C@H]3N)O[C@@H]2CO)[C@H](N)[C@@H](O)[C@@H]1O [Paromomycin (sulfate)] | – | inactive: -0.477 | – |
| C[N+]1(C)CCC(OC(=O)C(O)(c2ccccc2)C2CCCC2)C1 (configuration not stated) [glycopyrrolate, Chiesi] | – | inactive: 2.01 | – |
| C[N+]1(C)CCC(OC(=O)C(O)(c2ccccc2)C2CCCC2)C1 (configuration not stated) | inactive: -0.825 | – | inactive: 2.74 |
| O=c1cc(-c2ccccc2)oc2cc(O)cc(O)c12 | inactive: 0.796 | – | inactive: 2.58 |
| O=c1cc(-c2ccccc2)oc2cc(O)cc(O)c12 [5,7-Dihydroxyflavone] | – | inactive: 1.11 | – |
| CCOCCn1nc(C(=O)NS(=O)(=O)c2ccc(C)cc2)c2nc(N(C)CC)nc(Nc3cc(C)ccn3)c21 | inactive: -0.646 | inactive: -1.53 | inactive: -0.371 |
| CC(=O)SC[C@H](Cc1ccc2c(c1)OCO2)C(=O)N[C@@H](C)C(=O)OCc1ccccc1 [Fasidotril] | inactive: -0.256 | inactive: 0.38 | inactive: 2.38 |
| Cc1c(C(=O)Nc2ccc(S(C)(=O)=O)cc2)cn(CCO)c1-c1ccccc1C(F)(F)F [Esaxere] | inactive: -1.18 | inactive: -0.146 | inactive: 0.123 |
| Cc1nc(Nc2ccc(F)cc2)nc(N2CCc3ccccc3C2C)c1C (configuration not stated) [revaprazan] | inactive: -0.972 | inactive: -1.65 | inactive: -1.69 |
| CN[C@H](Cc1ccccc1)C(=O)N1CCC[C@H]1C(=O)NC[C@H]1CC[C@H](N)CC1 | inactive: 0.611 | inactive: -1.02 | inactive: 0.484 |
| COc1cccc(-c2c(C)n(Cc3c(F)cccc3C(F)(F)F)c(=O)n(C[C@H](NCCCC(=O)O)c3ccccc3)c2=O)c1F | inactive: 0.811 | inactive: 2.47 | inactive: 0.594 |
| COc1ccc(CC(=O)N2CCC(C(=O)N3CCC(c4ccccc4)CC3)CC2)cc1 | inactive: 1.93 | – | inactive: 1.35 |
| CC[C@H]1OC(=O)[C@H](C)[C@@H](O[C@H]2C[C@@](C)(OC)[C@@H](O)[C@H](C)O2)[C@H](C)[C@@H](O[C@@H]2OC(C)C[C@H](N(C)C)[C@H]2O)[C@](C)(O)C[C@@H](C)C(=O)[C@H](C)[C@@H](O)[C@]1(C)O (some centres not stated) [erythromycin, Andromaco] | inactive: -1.61 | inactive: -1.58 | inactive: -0.218 |
| CN1CCCCC1C(C)(C)OC(=O)C(c1ccccc1)c1ccccc1 (configuration not stated) | inactive: -1.47 | inactive: -2.19 | inactive: -0.825 |
| CCn1c(=O)c2ccccc2n(Cc2ccc([N+](=O)[O-])cc2)c1=O | inactive: -0.291 | inactive: 0.606 | inactive: -0.854 |
| CC(C)(C)C(=O)Nc1ccc(S(=O)(=O)Nc2ccccc2)cc1 | inactive: -0.507 | inactive: -0.793 | inactive: -0.54 |
| CN(CC(=O)N1CCOCC1)Cc1c(Cl)cccc1NC(=O)c1ccccc1 | inactive: -0.614 | inactive: -0.932 | inactive: 0.761 |
| Cc1cc(C)c2c3ccccc3n(Cc3ccc([C@H](C(=O)N[C@@H](CO)c4ccccc4)C4CCCC4)cc3)c2n1 [Implitapide] | inactive: 0.218 | inactive: -0.516 | inactive: 0.495 |

Limited to TEAD-luciferase reporter activity (compound concentration: 2 uM) and TEAD-luciferase reporter activity (compound concentration: 200 nM) (2 entries from above):

| SMILES | TEAD-luciferase reporter activity (compound concentration: 2 uM) | TEAD-luciferase reporter activity (compound concentration: 200 nM) |
| --- | --- | --- |
| C[N+]1(C)CCC(OC(=O)C(O)(c2ccccc2)C2CCCC2)C1 (configuration not stated) | – | inactive: -0.825 |
| O=c1cc(-c2ccccc2)oc2cc(O)cc(O)c12 | – | inactive: 0.796 |
